By UniProt entry, the sequences of proteins in these tests, tags left out. Where a name states a change or a piece, a line headed by the entry shows the natural chain unless it says otherwise.
UniProt P18054: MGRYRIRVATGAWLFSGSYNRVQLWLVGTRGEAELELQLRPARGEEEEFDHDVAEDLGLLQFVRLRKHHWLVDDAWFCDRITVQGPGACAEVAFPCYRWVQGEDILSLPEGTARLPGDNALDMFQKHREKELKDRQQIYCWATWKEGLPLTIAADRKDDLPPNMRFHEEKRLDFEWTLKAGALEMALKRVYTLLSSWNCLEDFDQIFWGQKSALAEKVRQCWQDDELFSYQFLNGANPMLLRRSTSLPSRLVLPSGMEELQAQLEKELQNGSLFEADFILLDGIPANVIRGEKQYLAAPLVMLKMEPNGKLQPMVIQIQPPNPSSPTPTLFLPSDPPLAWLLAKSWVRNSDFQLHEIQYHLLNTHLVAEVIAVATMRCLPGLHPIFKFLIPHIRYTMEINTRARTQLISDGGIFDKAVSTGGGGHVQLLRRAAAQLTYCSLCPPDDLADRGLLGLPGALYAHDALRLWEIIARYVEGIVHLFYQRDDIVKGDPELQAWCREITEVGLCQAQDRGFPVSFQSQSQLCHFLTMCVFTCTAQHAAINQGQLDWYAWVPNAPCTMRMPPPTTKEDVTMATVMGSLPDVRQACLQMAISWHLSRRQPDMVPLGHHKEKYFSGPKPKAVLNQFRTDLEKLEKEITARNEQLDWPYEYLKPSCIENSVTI

Screen size: about 580,000 compounds; about 6,100 (1.1%) were called active. Inconclusive means that the source gave no clear call. Such entries were picked first, then a sample of the others. The call rests on the fitted dose curve; in most records, active means well fitted inhibition curve with a large enough effect; inconclusive means small, poorly fitted or top-dose-only effect, or another doubt; inactive means no such curve, though single readings can be large or run the other way. Potencies of inconclusive entries are doubtful fits and often do not repeat.
Each compound was assayed against Polyunsaturated fatty acid lipoxygenase ALOX12 (Homo sapiens) (UniProt P18054) (assay: Primary qHTS assay for inhibitors of human arachidonate 12S-lipoxygenase (ALOX12): Round 2). Details: purified 12hLO, xylenol orange hydroperoxide absorbance; activity change, negative = inhibition: at 108 µM (top of the series) unless noted.
Method in brief: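 Purified human 12hLO at 150 nM in 25 mM Hepes, 0.01% Triton X-100, pH 7.0, preincubated 15 min at room temperature with compound. Reaction started with 40 uM arachidonic acid, 30 min at room temperature. Hydroperoxide measured by Fe-xylenol orange, 573/405 nm absorbance ratio.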
With `CCCCCCNc1nc2c(c(=O)[nH]c(=O)n2C)n1CCCc1ccccc1` the “activity change, negative = inhibition” value was inactive: -8.28%.
`CCOC(=O)[C@@H]1[C@H]2COc3cc(OC)ccc3[C@@H]2N2C(=O)N(c3ccc(C(F)(F)F)cc3)C(=O)[C@@]12C` was tested, and the “activity change, negative = inhibition” value was inactive: -0.174%.
`O=C(NC1CCCC1)c1c[nH]c2ccc(F)cc2c1=O` was tested, and the Potency was inconclusive: 112 µM [inhibitor, single point].
For `C[C@H]1COC(=O)[C@H](Cc2ccc(F)cc2)C/C=C\C[C@@H](CC(=O)NCCO)C(=O)N1`, the Potency was inconclusive: 79.4 µM [inhibitor, single point].
For `Cc1ccn2c(NC3CCCC3)c(-c3cccs3)nc2c1`, the Potency was active: 31.6 µM.
With `Cn1c(-c2ccc(F)cc2)cnc1NCc1cccc([N+](=O)[O-])c1` the Potency was inconclusive: 5.62 µM [inhibitor, full curve].
For `COc1cc(/C=C2/C(=N)N3N=C(CC(=O)N4CCOCC4)SC3=NC2=O)ccc1OC(C)c1ccccc1` (configuration not stated), the “activity change, negative = inhibition” value was inactive: -8.18%.
For `Cc1nc2c(C)c(C)c(C)c(C)c2nc1C`, the “activity change, negative = inhibition” value was inactive: -30.7%.
For `COc1ccc(C(C[N+](=O)[O-])c2c(C)cc3ccccn23)cc1` (configuration not stated), the Potency was inconclusive: 39.8 µM [inhibitor, partial curve, poor fit].
In the case of `O=C1Nc2ccc(-c3ccccc3F)cc2C(=O)N2CCN(C(=O)c3ccccc3)C[C@H]12`, the Potency was inconclusive: 28.2 µM [inhibitor, full curve].
`Cc1ccc([N+](=O)[O-])cc1N=Cc1ccc(C#Cc2ccccc2)cc1` was tested, and the Potency was inconclusive: 3.98 µM [inhibitor, full curve, poor fit].
For `CCCCn1c(=O)[nH]c(=O)c2c1nc(COC(=O)c1cc(C)ccc1C)n2CCC`, the Potency was inconclusive: 50.1 µM [inhibitor, single point].
For `O=C(Nc1ccc(Br)c(F)c1)c1cnc(-c2ccccc2)nc1-c1ccncc1`, the Potency was inconclusive: 17.8 µM [inhibitor, full curve].
`CCn1c(SCC(=O)c2ccc(Cl)s2)nnc1-c1cccs1` was tested, and the Potency was inconclusive: 17.8 µM [inhibitor, partial curve, poor fit].
In the case of `CCN1CCN(Cc2cc(=O)oc3cc(C)ccc23)CC1`, the Potency was inconclusive: 112 µM [inhibitor, single point].
In the case of `FC(F)(F)c1cccc(N/N=C/c2ccc(Br)cc2)c1`, the Potency was active: 0.794 µM.
For `COCc1c(C(=O)N2CCc3ccccc32)oc2ccccc12`, the “activity change, negative = inhibition” value was inactive: -40.5%.
For `CCOC(=O)CSC1=C(C#N)C(=O)NC(c2ccc(OC)cc2)S1` (configuration not stated), the Potency was inconclusive: 31.6 µM [inhibitor, partial curve, poor fit].
For `O=c1oc2ccccc2cc1-c1nc(-c2ccc(Cl)cc2)cs1`, the Potency was inconclusive: 56.2 µM [inhibitor, partial curve, poor fit].
In the case of `CC1CC(OCC(O)CN2CCN(Cc3ccccc3)CC2)CC(C)(C)C1` (configuration not stated), the Potency was inconclusive: 44.7 µM [inhibitor, partial curve, poor fit].
`Cc1ccc(C(=O)O)cc1NC(=S)NC(=O)Cc1ccccc1` was tested, and the Potency was inconclusive: 17.8 µM [inhibitor, partial curve, poor fit].
For `O=[S+]1([O-])NC2(CCN(Cc3ccc(Cl)cc3)C2)COc2ncccc21` (configuration not stated), the Potency was inconclusive: 100 µM [inhibitor, single point].
For `O=C(O)CCc1ccc(-c2ccc(Cl)cc2)o1`, the Potency was inconclusive: 56.2 µM [inhibitor, partial curve, poor fit].
`CC1CCCCN1CCCNc1c(C=O)c(=O)[nH]c2ccccc12` (configuration not stated) was tested, and the Potency was inconclusive: 39.8 µM [inhibitor, partial curve, poor fit].
In the case of `CN(CC(=O)NCc1ccc(F)cc1)S(=O)(=O)c1ccc2[nH]c3c(c2c1)CCCC3`, the Potency was inconclusive: 56.2 µM [inhibitor, partial curve, poor fit].
`Cc1c(NC(=S)NC(=O)Cc2ccccc2)cccc1C(=O)O` was tested, and the “activity change, negative = inhibition” value was inactive: -12.6%.
For `COc1ccc(CC(=O)O/N=C(\N)Cc2ccc([N+](=O)[O-])cc2)cc1`, the Potency was inconclusive: 112 µM [inhibitor, partial curve, poor fit].
For `CCN(C(=O)CSc1nnc2c3ccccc3n(CC)c2n1)C1CCS(=O)(=O)C1` (configuration not stated), the Potency was inconclusive: 126 µM [inhibitor, partial curve, poor fit].
For `CCN(CC)S(=O)(=O)c1cccc(-c2nnc(SCCCC(=O)c3ccc(F)cc3)o2)c1`, the “activity change, negative = inhibition” value was inactive: -5.69%.
In the case of `CCONC(=O)C(C)Oc1cccc(C)c1C` (configuration not stated), the “activity change, negative = inhibition” value was inactive: -11.5%.
`CCCCn1c(=O)c2sccc2n(CC(=O)N(CC)c2ccccc2)c1=O` was tested, and the “activity change, negative = inhibition” value was inactive: -19.6%.
In the case of `Cc1cccn2c(=O)cc(CSc3nnc(NC(=O)COc4ccccc4)s3)nc12`, the Potency was inconclusive: 126 µM [inhibitor, partial curve, poor fit].
In the case of `CC(=O)Nc1nnc(SCC(=O)NCC2CCCO2)s1` (configuration not stated), the Potency was inconclusive: 44.7 µM [inhibitor, partial curve, poor fit].
With `CC(C)(C)NCC(=Cc1ccccc1)C(=O)c1ccccc1` the Potency was inconclusive: 35.5 µM [inhibitor, partial curve, poor fit].
For `COC(=O)c1cc2sccc2n1CC(=O)Nc1ccc(OC)c(OC)c1`, the Potency was inconclusive: 158 µM [inhibitor, partial curve, poor fit].
For `O=C(NCCN1CCCCC1)c1nc(-c2ccc3cc[nH]c3c2)no1`, the Potency was inconclusive: 50.1 µM [inhibitor, partial curve, poor fit].
For `CCCCCCn1c(=O)n2n(c1=O)C[C@]1(OC(=O)NCc3ccc(OC)c(OC)c3)CN(S(=O)(=O)c3ccc(C)cc3)C[C@]1(O)C2`, the Potency was inconclusive: 79.4 µM [inhibitor, single point].
For `O=C(O)CC(C(=O)O)c1c[nH]c2ccccc12` (configuration not stated), the Potency was inconclusive: 44.7 µM [inhibitor, partial curve, poor fit].
With `CCCNC(=O)/C=C/c1ccc(C(C)C)cc1` the Potency was inconclusive: 50.1 µM [inhibitor, partial curve, poor fit].
`Cc1c(CCC(=O)O)c(=O)oc2cc(OCc3ccccc3Br)ccc12` was tested, and the activity change, negative = inhibition was inconclusive: -31.9% [inhibitor].
With `O=C(NCc1cccs1)C(c1ccccc1)c1ccccc1` the Potency was inconclusive: 7.08 µM [inhibitor, partial curve, poor fit].
`Nc1nc2c(ncn2[C@@H]2O[C@H](CNS(=O)(=O)N3CCCC3)[C@@H](O)[C@H]2O)c(=O)[nH]1` was tested, and the Potency was inconclusive: 50.1 µM [inhibitor, partial curve, poor fit].
`O=C(c1ccc2c(c1)N(Cc1cccc(F)c1)C(=O)c1ccccc1S2)N1CCC2(CC1)OCCO2` was tested, and the Potency was inconclusive: 56.2 µM [inhibitor, partial curve, poor fit].
For `COc1ccc(OC)c(-n2c(N)c(C(=O)NCC3CCCO3)c3nc4ccccc4nc32)c1` (configuration not stated), the Potency was inconclusive: 56.2 µM [inhibitor, partial curve, poor fit].
With `COCCC(=O)N1CCCCCCN(C)C(=O)[C@@H]2CCC[C@@H]21` the “activity change, negative = inhibition” value was inactive: 43%.
`Cc1cc(=O)n(CC(=O)Nc2ccc(Cl)cc2)c(N2CCC(C)CC2)n1` was tested, and the Potency was inconclusive: 20 µM [inhibitor, full curve, poor fit].
In the case of `COCCNC(=O)c1cccc(OC2CCN(Cc3ccccc3C)CC2)c1`, the Potency was inconclusive: 44.7 µM [inhibitor, partial curve, poor fit].
`Cc1nc(-c2cccc(Cl)c2)sc1C(=O)N1CCN(Cc2ccc(C#N)cc2)CC1` was tested, and the “activity change, negative = inhibition” value was inactive: 6.42%.
`O=C(CCS(=O)(=O)c1ccc2c(c1)NC(=O)CO2)NCc1ccccc1` was tested, and the “activity change, negative = inhibition” value was inactive: 5.43%.
`O=S(=O)(CCN1CCN(c2ccccc2O)CC1)c1cc(Cl)ccc1Cl` was tested, and the Potency was inconclusive: 112 µM [inhibitor, partial curve, poor fit].
For `O=C(c1ncccc1O)N1CCCC(CCc2cccc(C(F)(F)F)c2)C1` (configuration not stated), the Potency was inconclusive: 31.6 µM [inhibitor, partial curve].
In the case of `NC(=O)CC(NC(=O)c1cccc(Br)c1)c1ccc(NC2CCCCCCC2)c([N+](=O)[O-])c1` (configuration not stated), the Potency was inconclusive: 56.2 µM [inhibitor, partial curve, poor fit].
With `CCN1C(=O)C(=CC=CN(C)c2ccccc2)SC1=S` the Potency was inconclusive: 20 µM [inhibitor, partial curve, poor fit].
With `CCOC(=O)c1ccc2c(c1)nc(SCC(=O)c1ccco1)n2CC` the Potency was inconclusive: 56.2 µM [inhibitor, partial curve, poor fit].
For `COc1ccc(CCNC(=O)c2ccc(Br)o2)cc1Br`, the Potency was inconclusive: 100 µM [inhibitor, single point].
In the case of `OC[C@@H]1O[C@H](CNCc2cccc(Cl)c2)[C@H](N2CCN(c3ccc(F)cc3)CC2)[C@@H]1O`, the Potency was inconclusive: 17.8 µM [inhibitor, partial curve, poor fit].
In the case of `CN(CC(=O)Nc1nc2ccccc2s1)S(=O)(=O)c1ccc(Cl)cc1`, the Potency was inconclusive: 50.1 µM [inhibitor, partial curve, poor fit].
In the case of `O=C(NCCc1ccc(Cl)cc1)c1ccc2c(c1)OCO2`, the Potency was inconclusive: 35.5 µM [inhibitor, partial curve, poor fit].
For `Cn1c(SCc2ccccc2)nc(N)c(N=O)c1=O`, the “activity change, negative = inhibition” value was inactive: 0%.
`CCCC(=O)Nn1cnc2c(c1=O)C1(CCCCC1)Cc1ccccc1-2` was tested, and the Potency was inconclusive: 35.5 µM [inhibitor, partial curve, poor fit].
In the case of `COCC(C)n1c(SCC(=O)N2CCOCC2)nc2ccccc2c1=O` (configuration not stated), the Potency was inconclusive: 28.2 µM [inhibitor, partial curve, poor fit].
On the % scale 0 is the no-effect control and ±100 the full control effect; potency means the concentration at half of the fitted maximal effect.
